This note sets out measurements from the supplement of paper PMC12578635.

± gives the standard deviation of the averaged measurements. This is one part of the list. Many values rest on one well or one pass, so single values are uncertain.

The test has as its system RAW 264.7 macrophages infected with S. aureus JE2-lux. As to the kind of experiment: host macrophage viability (CellTiter-Fluor) relative to DMSO vehicle; higher = more viable host cells. As to conditions: 10 µM; treatment time 4 h; gentamicin 50 µg/ml.
Consider `COC(=O)C1=C(C)OC(N)=C(C#N)C1c1ccc(OC)cc1` (configuration not stated), for which the host macrophage viability was determined as 113%.
As to `CCOc1ccc(-c2cccc(NC(=O)c3ccco3)c2)nn1`, the host macrophage viability is 111%.
In the case of `Cc1cc2oc(=O)cc(-c3cc4ccccc4o3)c2cc1O` it was 102%.
Regarding `O=C(O)CSc1nnc2c(n1)[nH]c1cccc(C(F)(F)F)c12`, the host macrophage viability was 134%.
To `CC(C)CCNC(=O)Nc1c(-c2ccncc2)[nH]c2c(Cl)cccc12` belongs 110%.
As for `NC(=O)c1oc2ccccc2c1NC(=O)Cc1ccc([N+](=O)[O-])cc1`, the host macrophage viability amounted to 107%.
In the case of `Cn1nc(C2CC2)cc1C(=O)Nc1cccc(-c2csnn2)c1` it was 109%; in that of `CC1=C(C(=O)Nc2ccccc2C)C(c2ccccc2)NC(=O)N1` (configuration not stated), 99.5%; in that of `O=C(CSc1nc(-c2ccccc2)cc(=O)[nH]1)NCc1ccc(F)cc1`, 126%.
In the case of `CN1C(=O)c2cccc(NC(=O)c3cc(-c4cccs4)nc4ccccc34)c2C1=O` it was 140%; in that of `CC(C)(C)c1cc(Br)ccc1OCC(=O)Nc1nnc[nH]1`, 114%; in that of `Cc1[nH]c2ccccc2c1CCNC(=O)c1ccc2nccnc2c1`, 110%.
In the case of `Cc1cc(N2CCC(C(=O)Nc3cccc4ccccc34)CC2)n2ncnc2n1`, the host macrophage viability is 129%.
To `CN1C(=O)C2ON(c3ccccc3)C(c3ccccc3)C2C1=O` (configuration not stated) belongs 114%.
In the case of `COc1ccc(Cn2c(C)nc3cc(NC(=O)Nc4ccc(Cl)cc4)c(C)nc32)cc1`, the host macrophage viability turned out to be 110%.
On to `N#Cc1c(/N=C/c2ccccc2O)oc(-c2ccco2)c1-c1ccco1`, for which the host macrophage viability was found to be 135 ± 7.7%.
To `COC(=O)C1=C(NC(=O)COc2ccc3ccccc3c2)CCS1` belongs 115%; to `COc1ccc(OC)c2[nH]c(=O)c(CCNC(=O)Cc3cccc(C)c3)cc12`, 120%; to `O=C(Nc1nc2c(s1)CSc1ccccc1-2)c1coc2ccccc2c1=O`, 101%.
For `CCC(C(=O)N1CCN(C)CC1)n1cnc2c(sc3ncccc32)c1=O` (configuration not stated), the host macrophage viability is 102%.
In the case of `O=c1c2ccccc2nc2c(-c3nc(-c4ccc5c(c4)OCO5)no3)cccn12` it was 124%; in that of `COc1ccc2c(c1)CCc1c(-c3nc(-c4ccc(Cl)cc4)no3)n[nH]c1-2`, 119%; in that of `Cc1oc(-c2ccno2)cc1S(=O)(=O)N1CCCc2ccccc21`, 115%.
To `N#Cc1c(NC(=O)CC(=O)CSc2ncnc3sc4c(c23)CCC4)sc2c1CCCC2` belongs 127%; to `O=S(=O)(NCc1ccc(-c2nn3cnnc3s2)cc1)c1ccccc1`, 132%.
In the case of `COC(=O)c1ccc(NC(=O)CSc2nc3c([nH]2)c(=O)n(C)c(=O)n3C)cc1` it was 98.4%.
In the case of `CCc1ccc(NS(=O)(=O)c2[nH]nc(C)c2C(=O)n2nc(C)cc2C)cc1`, the host macrophage viability came to 121%.
To `O=C(Nn1cnc2c(cnn2-c2cccc(Cl)c2)c1=O)c1ccccc1C(F)(F)F` belongs 114%; to `C=CCOc1ccccc1NC(=O)c1cnc(C(C)(C)C)nc1`, 114%.
Turning to `Nc1c(C(=O)Nc2ccc(Oc3ccccc3)cc2)sc2nc3c(cc12)C(=O)CCC3`, the host macrophage viability is 129%.
Regarding `COc1ccc(C2C(C#N)=C(N)SC3C(=O)N(c4ccc(C)cc4)C(=O)C32)cc1` (configuration not stated), the host macrophage viability turned out to be 117%.
To `COc1cccc2cc(C(=O)C3=C(O)C(=O)N(CCCN(C)C)C3c3cccnc3)oc12` (configuration not stated) belongs 89.5%.
To `Cc1csc(SCc2cc(=O)c(OC(=O)c3cc4ccccc4o3)co2)n1` belongs 113%.
In the case of `Cc1c(C)n2c(SCC(=O)N3CCc4ccccc43)nnc2[nH]c1=O` it was 107%; in that of `COCCCNc1oc(-c2ccc([N+](=O)[O-])cc2)nc1C#N`, 140%.
Turning to `COc1ccc(CN(Cc2nc3ccccc3c(=O)[nH]2)C(=O)c2ccco2)cc1`, the host macrophage viability was determined as 117%.
In the case of `O=C1c2oc3ccc(Cl)cc3c(=O)c2C(c2ccncc2)N1CCc1ccccc1` (configuration not stated) it was 109%; in that of `FC(F)(F)c1cccc(CSc2ncnc3ccccc23)c1`, 96 ± 4.2%; in that of `CC(=O)c1ccc(NC(=O)CSc2nc(C)cc(C)c2C#N)cc1`, 113%.
On to `COc1c(C(=O)NC2CCCOC2)cnc2cc(Cl)ccc12` (configuration not stated), for which the host macrophage viability came out at 113%.
Regarding `O=C1OCCC1Sc1nc2ccccc2c(=O)[nH]1` (configuration not stated), the host macrophage viability is 118%.
In the case of `CCOCCn1ccc2c(OCC(=O)NCCc3ccc(OC)c(OC)c3)cccc2c1=O` it was 105%.
For the molecule `O=C(CC1NC(=O)NC1=O)Nc1ccc(F)cc1` (configuration not stated), the host macrophage viability worked out at 119%.
Turning to `CCOc1ccc(NC(=O)CCn2c(=S)[nH]c3ccccc3c2=O)cc1`, the host macrophage viability amounted to 123%.
To `O=C(NCC(c1ccco1)N1CCc2ccccc21)C(=O)Nc1ccc([N+](=O)[O-])cc1` (configuration not stated) belongs 123%.
Consider `CCn1cc(C(=O)N2CCC(n3c(C)nc4sc(C)c(C)c4c3=O)CC2)c(C)n1`, for which the host macrophage viability came to 118%.
In the case of `C=CCOc1ccccc1NC(=O)c1cc2ncc(C(C)=O)c(C)n2n1` it was 126%.
To `Cc1ccc(NS(=O)(=O)c2cc(-c3nc(C)cs3)cs2)c(Br)c1` belongs 103%; to `COc1ccc(C2CC(=O)n3nc(-c4ccc(Cl)c(Cl)c4)nc3S2)cc1` (configuration not stated), 118%.
To `Cc1nn(-c2nc3ccccc3s2)c2nc(C(C)(C)C)cc(C(F)(F)F)c12` belongs 114%; to `O=C(O)c1cccnc1SCC(=O)N1CCN(c2ccccn2)CC1`, 130%; to `CCOC(=O)c1s/c(=N\C(=O)CN2C(=O)c3ccccc3C2=O)n(C)c1C`, 114 ± 5.2%.
For `Cc1cccc(N2CCN(CCCNC(=O)c3cc(-c4ccccn4)nc4ccccc34)CC2C)c1` (configuration not stated), the host macrophage viability turned out to be 108%.
On to `O=C(c1ccc(F)c(F)c1)N1CCN=C1SCc1cccnc1`, for which the host macrophage viability was 107 ± 11%.
Consider `Cc1ccc(-c2cc3nc(-c4cccnc4)cc(C(F)(F)F)n3n2)cc1`, for which the host macrophage viability was 129%.
In the case of `CC1CCc2[nH]nc(-c3nc(-c4ccc(Cl)cc4)no3)c2C1` (configuration not stated) it was 98.8%; in that of `CCOC(=O)c1cc(C)nc2c1c(=O)n(CC(=O)NCc1ccc(C)cc1)c(=O)n2C`, 118%; in that of `O=C(Nc1ccccc1-n1cccc1)c1cccc2nccnc12`, 115%.
With `CCN(CC)CCN1C(=O)C(O)=C(C(=O)c2cc3ccccc3o2)C1c1ccccn1` (configuration not stated), the host macrophage viability stood at 110%.
On to `Cc1ccc(C)c(S(=O)(=O)Nc2cc3c4c(c2)CCC(=O)N4CCC3)c1`, for which the host macrophage viability was 111%.
In the case of `O=C(CC(NCc1ccccn1)C(=O)O)Nc1cccc([N+](=O)[O-])c1` (configuration not stated) it was 110%; in that of `COc1cc2nc(NC(=O)c3ccco3)sc2cc1OC`, 110%.
`Nc1c(-c2nc(-c3ccc4c(c3)OCO4)no2)nnn1-c1cccc(C(F)(F)F)c1`: the host macrophage viability came out at 126%.
In the case of `CCOc1ccc2nc(NC(=O)C3CCCN(c4ncnc5sc(CC)cc45)C3)sc2c1` (configuration not stated), the host macrophage viability worked out at 117%.
Take `c1ccc(Cc2nc3ccccc3c3nnc(SCc4ccccn4)n23)cc1`: the host macrophage viability turned out to be 78.5%.
Consider `C#CCOc1cccc(C2CC(=O)Nc3c2c(C)nn3-c2nncc(-c3cccc(OC)c3)n2)c1` (configuration not stated), for which the host macrophage viability was 104%.
In the case of `COC(=O)Cn1/c(=N/C(=O)c2ccc(F)cc2)sc2cc(S(N)(=O)=O)ccc21` it was 125%.
